These are yes or no findings as the source states them, for the method shown. In cells and extracts the contact can be indirect. Some entries that bind do so weakly or less than the wild type.
What was measured:
[1] = target: proto-oncogene c-Cbl (116 kD phosphorylated protein of human thymocytes) (human) (UniProt P22681); assay: co-immunoprecipitation from human thymocytes, anti-phosphotyrosine and anti-Cbl blots
[2] = target: proto-oncogene c-Cbl (116 kD phosphorylated protein of human thymocytes) (human) (UniProt P22681); assay: co-immunoprecipitation from human thymocytes; confirmed in Jurkat cells (data not shown)
[3] = target: proto-oncogene c-Cbl (116 kD phosphorylated protein of human thymocytes) (human) (UniProt P22681); assay: co-immunoprecipitation: western blot of Lyp immunoprecipitates from anti-CD3 stimulated human thymocytes; also seen in Jurkat (not shown)

Measured: binding

B1: Lyp1 (human lymphoid protein tyrosine phosphatase, 105 kD) (enzyme)
chain: MDQREILQKFLDEAQSKKITKEEFANEFLKLKRQSTKYKADKTYPTTVAENAKNIKKNRYKDILPYDYSRVELSLITSDEDSSYINANFIKGVYGPKAYIATQGPLSTTLLDFWRMIWEYSVLIIVMACMEYEMGKKKCERYWAEPGEMQLEFGPFSVSCEAEKRKSDYIIRTLKVKFNSETRTIYQFHYKNWPDHDVPSSIDPILELIWDVRCYQEDDSVPICIHCSAGCGRTGVICAIVDYTWMLLKDGIIPENFSVFSLIREMRTQRPSLVQTQEQYELVYNAVLELFKRQMDVIRDKHSGTESQAKHCIPEKNHTLQADSYSPNLPKSTTKAAKMMNQQRTKMEIKESSSFDFRTSEISAKEELVLHPAKSSTSFDFLELNYSFDKNADTTMKWQTKAFPIVGEPLQKHQSLDLGSLLFEGCSNSKPVNAAGRYFNSKVPITRTKSTPFELIQQRETKEVDSKENFSYLESQPHDSCFVEMQAQKVMHVSSAELNYSLPYDSKHQIRNASNVKHHDSSALGVYSYIPLVENPYFSSWPPSGTSSKMSLDLPEKQDGTVFPSSLLPTSSTSLFSYYNSHSSLSLNSPTNISSLLNQESAVLATAPRIDDEIPPPLPVRTPESFIVVEEAGEFSPNVPKSLSSAVKVKIGTSLEWGGTSEPKKFDDSVILRPSKSVKLRSPKSELHQDRSSPPPPLPERTLESFFLADEDCMQAQSIETYSTSYPDTMENSTSSKQTLKTPGKSFTRSKSLKILRNMKKSICNSCPPNKPAESVQSNNSSSFLNFGFANRFSKPKGPRNPPPTWNI
binds: all assays above
